± gives the standard deviation. The list shows a part of the results, in another mix than the full data. Many of these values have a large error.
The sequences below were run on EfPiwi piRISC loaded with piRNA #1 (26 nt) (assay: pre-steady-state target cleavage rate (min^-1); guide: piRNA #1 5'p-UGAGGUAGUAGGUUGUAUAGUAUCCA; MIWI and MILI are mouse PIWI proteins and EfPiwi is from a freshwater sponge; tags in brackets are library labels; higher = faster piRNA-guided slicing of the target). Settings: auxiliary factor: 500 nM Ephydatia muelleri Gtsf1.
Outline: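 The pre-steady-state cleavage rate came from a burst-and-steady-state fit to pooled data from three Cleave-'n-Seq trials, in which uncleaved targets were sequenced and normalised to depth and to weakly complementary targets. Each reaction held 0.1 nM transcribed, DNA-blocked target RNA library and 1 nM active affinity-purified piRISC carrying one synthetic guide, with or without 500 nM GTSF1 partner protein, in HEPES–potassium acetate buffer at 33 °C for 0–8 or 0–960 min. k3 was capped at 0.0001 min^-1.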
In the case of GGAGACCAAACUAUACUACCUACUACCUCA, the “pre-steady-state target cleavage rate” value is reported as 0.00362 ± 0.0032. In the case of GGAGACGAUAGUAUUCAACCUACUACCUCA, the “pre-steady-state target cleavage rate” value is reported as 0.00179 ± 0.0051. In the case of GGAGACCUAAGUAUACAACCUACUAGCUCA, the “pre-steady-state target cleavage rate” value is reported as 0.0028 ± 0.0037. For GGAGACCUAUCUAUCCAACCUACUACCUCA, the “pre-steady-state target cleavage rate” value was 0.00348 ± 0.0037. In the case of GGAGACCUAUCAAUACAACCUACUACGUCA, the “pre-steady-state target cleavage rate” value is reported as 0.00128 ± 0.0054. GGAGACCUAUCUAUACAACCGACUACCUCA was tested, and the “pre-steady-state target cleavage rate” value was 0.00301 ± 0.0044. For GGAGACGAUACUAUAGAACCUACUAGCUCA, the “pre-steady-state target cleavage rate” value was 0.00419 ± 0.0018. For GGAGACCUAACUUUACAACCUACAACCUCA, the “pre-steady-state target cleavage rate” value was 0.000841 ± 0.0097. For GGAGACCUUACUAUACAACGUACUAGCUCA, the “pre-steady-state target cleavage rate” value was 0.00143 ± 0.0031. In the case of GGAGAGUAUACUAUACAACCUACUACCUCA, the “pre-steady-state target cleavage rate” value is reported as 0.0182 ± 0.0087. GGAGACCUAACUAUACUACCUACUACCACA was tested, and the “pre-steady-state target cleavage rate” value was 0.00219 ± 0.0046. With GGAGAGGAUACUAUACAACCUUCUACCUCA the “pre-steady-state target cleavage rate” value was 0.00778 ± 0.0039. With GGAGACCUAUGAUAUGUUGCUACUACCUACA the “pre-steady-state target cleavage rate” value was 0.000346 ± 0.0066. GGAGACCUAUCUAUACAACCUACUACCCUCA was tested, and the “pre-steady-state target cleavage rate” value was 0.00178 ± 0.0045. GGAGAGGAUAGUAUACAACCUACUACCUGA was tested, and the “pre-steady-state target cleavage rate” value was 0.00298 ± 0.0022. In the case of GGAGACCAUACUAUACAAGCUACUACCUGA, the “pre-steady-state target cleavage rate” value is reported as 0.00543 ± 0.0026.

Source: the supplement of paper PMC10338343
